The list shows a part of the results, in another mix than the full data. Calls of active or inactive are those of the source.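 Rule for the calls: active = activation, as change over the incubation, above the mean of all tested compounds plus 3 SD (cut at about 13% in these data); inactive = the rest.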

The chains behind the UniProt entries cited, without tags or fusion partners. Where a name states a change or a piece, a line headed by the entry shows the natural chain unless it says otherwise.
UniProt P49862: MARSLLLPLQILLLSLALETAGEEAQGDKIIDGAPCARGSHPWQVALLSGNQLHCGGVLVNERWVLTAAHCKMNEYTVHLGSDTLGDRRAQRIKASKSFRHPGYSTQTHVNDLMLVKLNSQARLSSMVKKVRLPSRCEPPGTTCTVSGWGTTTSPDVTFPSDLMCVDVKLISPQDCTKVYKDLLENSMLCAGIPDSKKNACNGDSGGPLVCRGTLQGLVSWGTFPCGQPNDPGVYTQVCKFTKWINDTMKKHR

For the assay, the target named is Kallikrein-7 (Homo sapiens) (UniProt P49862). The assay is described as follows: activation of human kallikrein-7 proenzyme – biochemical, fluorescence intensity, triplicate, confirmation (AID 686949). The settings on record: purified proKLK7, EDANS-DABCYL substrate fluorescence; at 7 µM; hits give high values; scaled: vehicle 0, mature enzyme 100.
As to `Oc1ccc2ccccc2c1CNc1cnc2ccccc2c1`, the activation was active: 62.3%. The figure for `COC(=O)COc1ccc2cc(-c3ccc(OC)cc3)c(=O)oc2c1` is active: 70.9%.

The values above are taken from PubChem BioAssay AID686949 (The Scripps Research Institute Molecular Screening Center, 2013).
